Results on 17 targets are retold here after the supplement of paper PMC10849652.

The chains behind the UniProt entries cited, without tags or fusion partners. Where a name states a change or a piece, a line headed by the entry shows the natural chain unless it says otherwise.
UniProt Q8WVT3: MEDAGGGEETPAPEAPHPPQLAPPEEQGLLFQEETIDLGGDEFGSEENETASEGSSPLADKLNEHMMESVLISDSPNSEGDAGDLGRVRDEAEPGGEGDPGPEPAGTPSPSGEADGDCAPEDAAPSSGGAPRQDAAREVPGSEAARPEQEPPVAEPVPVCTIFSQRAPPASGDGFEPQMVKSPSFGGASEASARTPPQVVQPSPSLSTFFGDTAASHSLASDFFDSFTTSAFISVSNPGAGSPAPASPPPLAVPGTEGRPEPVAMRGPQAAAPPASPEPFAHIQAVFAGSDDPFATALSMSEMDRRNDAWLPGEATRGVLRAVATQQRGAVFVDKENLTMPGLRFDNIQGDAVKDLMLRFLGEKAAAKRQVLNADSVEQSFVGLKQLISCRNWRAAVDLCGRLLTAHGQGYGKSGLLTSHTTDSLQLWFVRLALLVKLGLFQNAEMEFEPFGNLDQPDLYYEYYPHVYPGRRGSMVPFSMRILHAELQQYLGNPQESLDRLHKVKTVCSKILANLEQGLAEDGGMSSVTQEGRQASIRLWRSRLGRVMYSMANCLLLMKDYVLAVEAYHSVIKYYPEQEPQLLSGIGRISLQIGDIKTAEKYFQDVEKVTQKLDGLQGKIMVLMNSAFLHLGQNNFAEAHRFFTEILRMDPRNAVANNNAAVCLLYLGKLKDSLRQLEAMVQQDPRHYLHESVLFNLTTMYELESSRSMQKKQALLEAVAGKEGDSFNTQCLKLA
UniProt Q92574: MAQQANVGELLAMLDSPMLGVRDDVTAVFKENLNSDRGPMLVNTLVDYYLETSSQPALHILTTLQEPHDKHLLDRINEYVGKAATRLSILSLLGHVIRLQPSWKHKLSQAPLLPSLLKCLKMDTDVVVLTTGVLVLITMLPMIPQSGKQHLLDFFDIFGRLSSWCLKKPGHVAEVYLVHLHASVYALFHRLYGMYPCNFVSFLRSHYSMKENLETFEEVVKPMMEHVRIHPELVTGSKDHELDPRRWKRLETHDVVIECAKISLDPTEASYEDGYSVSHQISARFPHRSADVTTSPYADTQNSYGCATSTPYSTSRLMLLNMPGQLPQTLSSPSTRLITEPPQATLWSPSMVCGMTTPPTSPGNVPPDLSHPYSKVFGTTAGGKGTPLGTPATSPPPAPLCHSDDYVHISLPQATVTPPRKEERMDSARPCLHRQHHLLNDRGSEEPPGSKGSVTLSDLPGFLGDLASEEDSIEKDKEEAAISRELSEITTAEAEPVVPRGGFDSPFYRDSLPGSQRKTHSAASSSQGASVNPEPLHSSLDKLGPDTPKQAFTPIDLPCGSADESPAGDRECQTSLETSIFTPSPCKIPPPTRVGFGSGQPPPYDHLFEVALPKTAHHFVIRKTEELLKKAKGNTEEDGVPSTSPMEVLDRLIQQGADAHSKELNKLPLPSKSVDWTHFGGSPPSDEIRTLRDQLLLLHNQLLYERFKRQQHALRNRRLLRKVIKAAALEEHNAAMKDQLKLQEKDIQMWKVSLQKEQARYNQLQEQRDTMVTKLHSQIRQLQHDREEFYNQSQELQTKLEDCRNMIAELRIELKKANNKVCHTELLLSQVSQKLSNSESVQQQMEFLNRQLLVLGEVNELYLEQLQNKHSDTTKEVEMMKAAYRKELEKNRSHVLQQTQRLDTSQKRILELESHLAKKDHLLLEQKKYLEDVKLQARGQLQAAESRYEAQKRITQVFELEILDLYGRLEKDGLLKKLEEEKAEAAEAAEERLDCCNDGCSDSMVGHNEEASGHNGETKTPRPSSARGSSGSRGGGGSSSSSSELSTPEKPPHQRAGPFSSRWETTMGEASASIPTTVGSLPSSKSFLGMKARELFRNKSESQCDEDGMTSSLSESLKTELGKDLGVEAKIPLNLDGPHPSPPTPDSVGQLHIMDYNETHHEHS
UniProt Q5BVD1: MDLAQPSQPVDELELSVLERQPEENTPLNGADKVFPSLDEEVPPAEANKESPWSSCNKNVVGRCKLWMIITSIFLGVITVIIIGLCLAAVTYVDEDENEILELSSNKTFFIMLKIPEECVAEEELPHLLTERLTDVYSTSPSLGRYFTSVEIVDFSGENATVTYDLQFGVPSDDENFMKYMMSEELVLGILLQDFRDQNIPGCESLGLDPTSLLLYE
UniProt Q6NXR4: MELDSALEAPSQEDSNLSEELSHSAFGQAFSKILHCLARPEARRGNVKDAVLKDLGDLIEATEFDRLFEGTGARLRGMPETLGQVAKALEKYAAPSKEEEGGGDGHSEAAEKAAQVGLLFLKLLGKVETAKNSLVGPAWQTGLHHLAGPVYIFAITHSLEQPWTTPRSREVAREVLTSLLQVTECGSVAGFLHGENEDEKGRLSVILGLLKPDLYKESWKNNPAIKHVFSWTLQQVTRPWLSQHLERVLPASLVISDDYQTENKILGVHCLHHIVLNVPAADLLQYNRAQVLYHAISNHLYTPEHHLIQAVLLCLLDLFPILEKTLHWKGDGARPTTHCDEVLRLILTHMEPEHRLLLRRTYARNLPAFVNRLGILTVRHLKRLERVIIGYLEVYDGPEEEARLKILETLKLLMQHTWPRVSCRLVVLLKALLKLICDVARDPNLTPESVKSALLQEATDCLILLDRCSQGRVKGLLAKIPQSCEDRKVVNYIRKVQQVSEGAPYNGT
UniProt Q15642: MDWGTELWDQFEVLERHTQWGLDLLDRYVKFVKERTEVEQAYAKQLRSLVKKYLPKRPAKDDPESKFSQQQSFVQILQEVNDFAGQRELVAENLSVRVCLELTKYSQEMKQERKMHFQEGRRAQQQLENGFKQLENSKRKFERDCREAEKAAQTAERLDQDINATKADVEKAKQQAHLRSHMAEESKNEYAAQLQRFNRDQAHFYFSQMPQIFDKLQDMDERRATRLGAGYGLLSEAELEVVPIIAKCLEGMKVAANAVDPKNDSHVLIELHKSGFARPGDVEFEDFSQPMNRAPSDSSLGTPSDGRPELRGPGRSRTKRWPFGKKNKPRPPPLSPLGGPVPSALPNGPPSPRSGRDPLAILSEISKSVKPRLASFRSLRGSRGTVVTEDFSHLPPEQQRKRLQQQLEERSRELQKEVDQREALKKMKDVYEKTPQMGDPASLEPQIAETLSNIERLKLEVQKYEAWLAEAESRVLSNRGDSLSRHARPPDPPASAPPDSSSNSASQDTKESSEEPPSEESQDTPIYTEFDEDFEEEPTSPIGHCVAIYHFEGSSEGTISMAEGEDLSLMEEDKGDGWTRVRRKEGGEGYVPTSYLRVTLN
UniProt Q9BQ61: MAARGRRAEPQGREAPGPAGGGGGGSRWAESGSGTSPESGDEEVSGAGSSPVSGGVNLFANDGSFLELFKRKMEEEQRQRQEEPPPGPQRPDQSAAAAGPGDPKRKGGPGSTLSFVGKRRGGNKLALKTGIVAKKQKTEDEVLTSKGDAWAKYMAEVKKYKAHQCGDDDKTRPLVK
UniProt Q96FX7: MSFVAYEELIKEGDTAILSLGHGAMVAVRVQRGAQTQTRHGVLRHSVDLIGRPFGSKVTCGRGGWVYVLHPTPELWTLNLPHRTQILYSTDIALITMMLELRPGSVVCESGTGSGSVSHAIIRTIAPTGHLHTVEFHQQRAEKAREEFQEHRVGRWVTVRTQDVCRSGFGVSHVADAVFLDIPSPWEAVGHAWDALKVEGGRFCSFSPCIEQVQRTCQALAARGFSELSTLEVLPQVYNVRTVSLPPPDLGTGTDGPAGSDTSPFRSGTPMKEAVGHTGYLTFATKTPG
UniProt Q13114: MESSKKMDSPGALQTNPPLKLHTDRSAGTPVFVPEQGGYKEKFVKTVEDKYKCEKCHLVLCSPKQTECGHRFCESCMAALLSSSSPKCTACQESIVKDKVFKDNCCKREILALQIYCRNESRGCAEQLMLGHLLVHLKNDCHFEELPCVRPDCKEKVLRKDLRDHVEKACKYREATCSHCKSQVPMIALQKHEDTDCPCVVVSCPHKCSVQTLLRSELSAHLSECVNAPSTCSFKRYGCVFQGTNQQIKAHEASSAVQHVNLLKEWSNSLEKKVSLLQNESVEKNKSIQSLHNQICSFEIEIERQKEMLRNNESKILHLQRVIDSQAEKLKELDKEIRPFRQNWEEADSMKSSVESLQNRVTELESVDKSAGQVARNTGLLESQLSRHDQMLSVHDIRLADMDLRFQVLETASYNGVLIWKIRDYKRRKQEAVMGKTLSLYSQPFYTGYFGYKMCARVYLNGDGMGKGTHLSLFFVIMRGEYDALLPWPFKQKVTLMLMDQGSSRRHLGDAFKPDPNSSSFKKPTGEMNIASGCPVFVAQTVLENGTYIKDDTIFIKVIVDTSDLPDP
UniProt Q8WW01: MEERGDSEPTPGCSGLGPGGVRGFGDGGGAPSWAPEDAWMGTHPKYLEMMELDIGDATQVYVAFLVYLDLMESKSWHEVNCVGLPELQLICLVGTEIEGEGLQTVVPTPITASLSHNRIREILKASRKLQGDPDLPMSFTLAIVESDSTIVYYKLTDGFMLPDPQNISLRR
UniProt O75648: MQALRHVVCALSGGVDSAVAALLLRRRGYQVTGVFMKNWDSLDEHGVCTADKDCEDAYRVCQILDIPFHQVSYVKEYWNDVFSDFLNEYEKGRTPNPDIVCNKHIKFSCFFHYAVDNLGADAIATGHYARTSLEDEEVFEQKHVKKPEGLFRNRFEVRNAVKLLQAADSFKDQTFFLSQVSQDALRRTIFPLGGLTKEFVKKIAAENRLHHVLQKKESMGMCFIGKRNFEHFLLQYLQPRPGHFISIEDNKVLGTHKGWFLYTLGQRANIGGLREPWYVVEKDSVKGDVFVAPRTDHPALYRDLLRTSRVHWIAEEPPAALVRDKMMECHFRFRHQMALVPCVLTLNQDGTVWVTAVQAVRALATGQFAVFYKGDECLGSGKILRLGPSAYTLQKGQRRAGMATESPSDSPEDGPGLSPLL
UniProt O95857: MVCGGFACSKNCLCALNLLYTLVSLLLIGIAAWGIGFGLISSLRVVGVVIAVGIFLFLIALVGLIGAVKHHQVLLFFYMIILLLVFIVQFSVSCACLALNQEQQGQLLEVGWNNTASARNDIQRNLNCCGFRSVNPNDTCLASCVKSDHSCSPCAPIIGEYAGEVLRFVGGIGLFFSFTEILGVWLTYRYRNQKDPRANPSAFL
UniProt A5PLN9: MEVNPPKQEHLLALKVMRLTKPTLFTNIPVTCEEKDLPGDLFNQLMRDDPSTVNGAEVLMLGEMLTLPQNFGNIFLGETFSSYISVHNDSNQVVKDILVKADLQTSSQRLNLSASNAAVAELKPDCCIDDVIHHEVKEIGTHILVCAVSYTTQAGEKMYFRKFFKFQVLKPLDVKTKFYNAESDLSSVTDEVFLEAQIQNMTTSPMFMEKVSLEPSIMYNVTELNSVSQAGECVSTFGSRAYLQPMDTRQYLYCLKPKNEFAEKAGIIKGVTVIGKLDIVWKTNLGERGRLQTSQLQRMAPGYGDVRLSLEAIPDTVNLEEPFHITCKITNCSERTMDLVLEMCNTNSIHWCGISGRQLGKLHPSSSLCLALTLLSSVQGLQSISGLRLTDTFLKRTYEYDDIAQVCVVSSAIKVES
UniProt Q9Y296, whole entry, looked up: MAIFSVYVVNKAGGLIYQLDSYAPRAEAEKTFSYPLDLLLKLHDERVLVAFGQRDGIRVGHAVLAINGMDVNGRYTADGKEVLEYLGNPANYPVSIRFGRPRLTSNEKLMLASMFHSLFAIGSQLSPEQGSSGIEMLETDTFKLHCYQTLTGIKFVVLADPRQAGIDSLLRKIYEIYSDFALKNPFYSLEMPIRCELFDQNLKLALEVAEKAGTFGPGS
UniProt Q9H892: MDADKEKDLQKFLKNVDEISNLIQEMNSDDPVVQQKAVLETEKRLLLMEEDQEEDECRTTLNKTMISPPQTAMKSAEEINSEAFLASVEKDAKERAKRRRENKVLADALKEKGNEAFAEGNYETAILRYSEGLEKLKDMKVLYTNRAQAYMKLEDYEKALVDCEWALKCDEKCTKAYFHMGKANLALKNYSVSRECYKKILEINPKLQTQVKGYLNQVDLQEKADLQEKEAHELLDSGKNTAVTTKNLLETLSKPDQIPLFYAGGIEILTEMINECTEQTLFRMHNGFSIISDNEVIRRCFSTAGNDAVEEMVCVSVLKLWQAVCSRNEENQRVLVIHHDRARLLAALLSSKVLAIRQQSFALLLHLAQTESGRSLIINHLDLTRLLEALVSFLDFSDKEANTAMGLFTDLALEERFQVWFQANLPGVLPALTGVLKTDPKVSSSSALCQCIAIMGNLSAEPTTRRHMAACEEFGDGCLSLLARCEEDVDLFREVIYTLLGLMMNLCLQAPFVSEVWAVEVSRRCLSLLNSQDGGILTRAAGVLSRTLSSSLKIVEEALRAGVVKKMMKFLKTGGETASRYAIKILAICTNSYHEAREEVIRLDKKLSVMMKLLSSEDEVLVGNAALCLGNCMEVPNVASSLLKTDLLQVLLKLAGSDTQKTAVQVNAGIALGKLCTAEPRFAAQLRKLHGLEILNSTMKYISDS

Some of the results follow.

Compound in this assay: C1=CC(=CC=C1C2=NC3=C(N2)C=C(C=C3)C(=O)N)OC4=CC=C(C=C4)Cl
As to the kind of experiment: log2 fold change, soluble protein after heating vs DMSO (PISA); higher = thermal stabilisation; K562 lysate, 10 uM; active = over 0.2 and 3.5 SD of the protein, either way, in both replicates (recomputed). Put shortly: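 Dounce homogenisation of K562 pellets in PBS pH 7.4 with 1 mM MgCl2 produced a crude extract, used at 1 mg/mL protein. Exposure to 10 μM compound lasted 30 min, and aliquots were then heated for 3 min across 48°C-58°C, pooled and brought to 0.5% NP-40 at 4°C. The supernatant after 21,000xg for 90 min was quantified by TMTpro 16plex LC-MS/MS with channel sums equalised. Duplicate values are given as log-two fold change in thermal stability relative to solvent controls.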
TRAPPC12 (UniProt Q8WVT3): the log2 fold change is inactive: -0.048.

With TSC1 (UniProt Q92574), the log2 fold change was inactive: 0.106.

TTMP isoform 3 (UniProt Q5BVD1): the log2 fold change was inactive: -0.023.

On to TTI2 (UniProt Q6NXR4), for which the log2 fold change is inactive: 0.023.

For TRRAP (UniProt Q9Y4A5), the log2 fold change is inactive: -0.013.

As for TRIP10 isoform 2 (UniProt Q15642), the log2 fold change is inactive: 0.034.

With TRIR (UniProt Q9BQ61), the log2 fold change was inactive: 0.07.

As for TRUB1 (UniProt Q8WWH5), the log2 fold change is inactive: -0.079.

TRMT61A (UniProt Q96FX7): the log2 fold change is inactive: 0.032.

As for TRAF3 (UniProt Q13114), the log2 fold change was inactive: 0.171.

Regarding TSEN15 (UniProt Q8WW01), the log2 fold change is inactive: 0.023.

With TRMT112 (UniProt Q9UI30), the log2 fold change is inactive: 0.008.

In the case of TRMU (UniProt O75648), the log2 fold change is inactive: -0.043.

Regarding TSPAN13 (UniProt O95857), the log2 fold change was inactive: 0.06.

For the target TRAPPC13 isoform 4 (UniProt A5PLN9), the log2 fold change is inactive: -0.006.

TRAPPC4 (UniProt Q9Y296): the log2 fold change was inactive: 0.022.

Turning to TTC12 isoform 2 (UniProt Q9H892), the log2 fold change was inactive: 0.055.
